From patent US4035397A, “Polyfluoro acid anthraquinone dyestuffs their preparation and their use” (Produits Chimiques Ugine Kuhlmann, priority 1973, dated 1977)

How the values were obtained:
[1] = dyeing of nylon (satin) and fastness of the dyed fabric; settings: for fastness to water / fastness to washing: dyed nylon; for fastness to washing: Example 7: severe washing
Method: 100 parts of "nylon" satin are steeped in a bath containing 3000 parts of water and 1 part of a wetting agent based on oxyethylenated fatty alcohol for 10 minutes at 40° C., then 0.5 to 2 parts of 80% acetic acid are added so as to obtain a pH of 4-5. 1 part of the above-mentioned dyestuff finely dispersed and which has been previously made into a paste in a little water is added. Dyeing commences at 500° C., the mixture is brought to boiling point in three-quarters of an hour whilst maintaining a level for a quarter of an hour at 75° C. and boiling is maintained for approximately one and a half hours.

[2] = dyeing of Rilsan fibres and fastness of the dyed fibre
Method: In accordance with the process of Example 1, 100 parts of "Rilsan" fibres are steeped in 3000 parts of water, the pH is brought to 6-7 by the addition of crystallised ammonium acetate and 0.5 parts of the above dyestuff is added. After dyeing for one and a half hours at boiling point and rinsing, a reddish-blue colouration is obtained which is very fast to water and washing.

SMILES | fastness to water [1] | fastness to washing [1] | shade on nylon [1] | other results
Nc1c(S(=O)(=O)O)cc(Nc2ccc(OC(F)(F)F)cc2)c2c1C(=O)c1ccccc1C2=O [Example 1, sodium salt of 1-amino-4-(paratrifluoromethoxy-anilino)-anthraquinone-2-sulphonic acid] | very good | very good | bright reddish-blue | fastness to light ([1]; dyed nylon satin): very good; fastness to perspiration ([1]; dyed nylon satin): very good
Nc1c(S(=O)(=O)O)cc(Nc2cccc(OC(F)(F)F)c2)c2c1C(=O)c1ccccc1C2=O [Example 2] | – | – | bright reddish-blue | –
O=C1c2ccccc2C(=O)c2c(Nc3ccc(OC(F)(F)F)cc3S(=O)(=O)O)ccc(Nc3ccc(OC(F)(F)F)cc3S(=O)(=O)O)c21 [Example 3] | excellent | excellent | greenish-blue | –
CNc1ccc(Nc2ccc(OC(F)(F)F)cc2S(=O)(=O)O)c2c1C(=O)c1ccccc1C2=O [Example 4, sodium salt of 1-methylamino-4'-trifluoromethoxy-4anilino-anthraquinone-2'-sulphonic acid] | – | – | – | shade on Rilsan [2]: reddish-blue; fastness to washing ([2]; dyed Rilsan): very fast; fastness to water ([2]; dyed Rilsan): very fast
CNc1ccc(Nc2ccc(S(=O)(=O)O)cc2OC(F)(F)F)c2c1C(=O)c1ccccc1C2=O [Example 5] | – | – | – | shade on Rilsan [2]: reddish-blue; fastness to wet tests ([2]; dyed Rilsan): very fast
O=C1c2ccccc2C(=O)c2c(NC3CCCCC3)ccc(Nc3ccc(OC(F)(F)F)cc3S(=O)(=O)O)c21 [Example 6, 1-cyclohexylamino-4-(2-sulpho-4-trifluromethoxyanilino)-anthraquinone (sodium salt)] | remarkably fast | remarkably fast | reddish-blue | –
COc1ccc(Nc2cc(S(=O)(=O)O)c(N)c3c2C(=O)c2ccccc2C3=O)cc1 [reference compound] | – | – | greenish-blue | –
COc1ccc(Nc2ccc(Nc3ccc(OC)cc3S(=O)(=O)O)c3c2C(=O)c2ccccc2C3=O)c(S(=O)(=O)O)c1 [reference compound] | – | – | green | –
COc1ccc(Nc2ccc(NC3CCCCC3)c3c2C(=O)c2ccccc2C3=O)c(S(=O)(=O)O)c1 [reference compound] | – | – | greenish-blue | –

Counter-ions that a name gives are not always drawn.
